Test results from article PMC6258397.
Results are given in words; binding and its absence hold for the method and conditions named. Binding seen in cells or lysates may run through a third protein. A result given as binding can be weak or reduced; the word gives no strength. Tags and fused reporters may be left off the sequences shown.

Legend:
[1] = biological target: CdDHN4-L-cYFP (bermudagrass (Cynodon dactylon x Cynodon transvaalensis) 'Tifway'); test: split reporter; BiFC: cYFP and nYFP fusions transiently co-transformed into leaves of 5-week-old N. benthamiana; YFP signal by confocal microscopy after 48-72 h in darkness
[2] = biological target: CdDHN4-S-cYFP (bermudagrass (Cynodon dactylon x Cynodon transvaalensis) 'Tifway'); test: as above

binding [1]: binds | binding [2]: binds
B1: nYFP-AtADH (enzyme, UniProt P06525 1-379)
chain: MSTTGQIIRCKAAVAWEAGKPLVIEEVEVAPPQKHEVRIKILFTSLCHTDVYFWEAKGQTPLFPRIFGHEAGGIVESVGEGVTDLQPGDHVLPIFTGECGECRHCHSEESNMCDLLRINTERGGMIHDGESRFSINGKPIYHFLGTSTFSEYTVVHSGQVAKINPDAPLDKVCIVSCGLSTGLGATLNVAKPKKGQSVAIFGLGAVGLGAAEGARIAGASRIIGVDFNSKRFDQAKEFGVTECVNPKDHDKPIQQVIAEMTDGGVDRSVECTGSVQAMIQAFECVHDGWGVAVLVGVPSKDDAFKTHPMNFLNERTLKGTFFGNYKPKTDIPGVVEKYMNKELELEKFITHTVPFSEINKAFDYMLKGESIRCIITMGA
